Source: patent publication US20030017599A1, “Assay for the detection of selectable marker expression in plants” (priority 1999, published 2003)
At least one compound was matched to its structure with a doubt left.

Legend:
[1] = test system: Nontransgenic 3-week-old corn seedlings; assay: Titration of selective agents with cotton rolls tied to the whorl; assay type: in vivo, corn (Zea mays)
Description: Nontransgenic 3-week-old corn seedlings were assayed in order to determine the quantity of selective agent necessary in order to obtain a response. […] Cotton rolls were saturated with solutions consisting of 0.03% SILWET L-77 and various concentrations of each of these three antibiotics individually and tied to the whorl of plants to be tested.
The concentrations of genenticin tested were 25 mg/mL, 50 mg/mL, 75 mg/mL, and 100 mg/mL.

[2] = test system: corn plants containing NPTII protein; assay: Kanamycin as selective agent to identify corn plants containing NPTII protein (predicted); assay type: in vivo, corn (Zea mays); conditions: 10 μL of 1000 mg/L kanamycin and 0.06% (v/v) SILWET L-77; five days
[3] = test system: young (three-leaf stage) transgenic tomato plants; conditions: sprayed over three days, total 0.5-2.0 mg kanamycin per plant, no surfactant; within 7 days of treatment; cited from earlier work

In the case of NC[C@H]1O[C@H](O[C@H]2[C@H](O)[C@@H](O[C@H]3O[C@H](CO)[C@@H](O)[C@H](N)[C@H]3O)[C@H](N)C[C@@H]2N)[C@H](O)[C@@H](O)[C@@H]1O [kanamycin], the “bleaching and necrosis in treated plant leaves” value ([1]; 250 mg/L, 300 mg/L and 500 mg/L in 0.03% SILWET L-77, two days) is reported as “Slight bleaching”, the “bleaching and necrosis in treated plant leaves” value ([1]; 750 mg/L and 1000 mg/L in 0.03% SILWET L-77, two days) is reported as “large patches of bleaching” and the “bleaching relative to similarly treated leaves of corn plants that do not contain NPTII protein” value [2] is reported as “reduced or no bleaching”. The “bleached spots on the treated tissue” value [3] was “did not develop bleached spots”.
